No constants are given. Whether binding was seen depends on the method and setting. In cells and extracts the contact can be indirect. Some entries that bind do so weakly or less than the wild type.
Legend:
Test in all cases: co-IP; HEK293(hGHR) cells transfected with FLAG- and Myc-tagged STAT5B WT or variant plasmids, untreated or GH-stimulated (100 ng/ml, 30 min); 300 ug whole-cell lysate, immunoprecipitation with anti-Myc sepharose beads, immunoblot
[1] = molecular target: STAT5B p.Ala478Val (human) (UniProt P51692)
[2] = molecular target: STAT5B p.Gln177Pro (human) (UniProt P51692)
[3] = molecular target: STAT5B p.Gln474Arg (human) (UniProt P51692)

Sequences of proteins named here, by UniProt entry; tags and fusion partners are left off. A change or cut given only in a name is not applied to a line headed by its entry. A line that says so, or that is headed by a name, gives the form on record, which may keep a tag or linker.
UniProt P51692: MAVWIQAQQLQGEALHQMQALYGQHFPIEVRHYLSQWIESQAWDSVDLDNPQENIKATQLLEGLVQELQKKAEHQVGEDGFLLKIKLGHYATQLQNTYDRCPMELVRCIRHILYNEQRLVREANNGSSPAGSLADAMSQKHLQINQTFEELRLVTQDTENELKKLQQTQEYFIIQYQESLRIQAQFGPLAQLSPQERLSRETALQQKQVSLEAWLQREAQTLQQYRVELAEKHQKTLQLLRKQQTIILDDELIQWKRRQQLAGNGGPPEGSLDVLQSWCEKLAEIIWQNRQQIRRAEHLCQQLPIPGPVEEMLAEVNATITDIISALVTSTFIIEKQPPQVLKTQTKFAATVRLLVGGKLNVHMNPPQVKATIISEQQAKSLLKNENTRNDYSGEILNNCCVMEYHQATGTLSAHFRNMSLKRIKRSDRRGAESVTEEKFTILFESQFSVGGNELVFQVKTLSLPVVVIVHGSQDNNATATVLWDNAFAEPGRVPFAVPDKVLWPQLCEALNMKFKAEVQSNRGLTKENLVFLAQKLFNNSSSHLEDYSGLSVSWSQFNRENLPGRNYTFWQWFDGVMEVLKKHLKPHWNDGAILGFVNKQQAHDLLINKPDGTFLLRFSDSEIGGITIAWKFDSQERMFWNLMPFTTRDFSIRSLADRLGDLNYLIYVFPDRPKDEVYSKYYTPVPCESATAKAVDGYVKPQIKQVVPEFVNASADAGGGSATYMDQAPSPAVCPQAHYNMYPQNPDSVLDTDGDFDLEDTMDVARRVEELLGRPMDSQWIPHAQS
STAT5B p.Ala478Val (P51692, form named): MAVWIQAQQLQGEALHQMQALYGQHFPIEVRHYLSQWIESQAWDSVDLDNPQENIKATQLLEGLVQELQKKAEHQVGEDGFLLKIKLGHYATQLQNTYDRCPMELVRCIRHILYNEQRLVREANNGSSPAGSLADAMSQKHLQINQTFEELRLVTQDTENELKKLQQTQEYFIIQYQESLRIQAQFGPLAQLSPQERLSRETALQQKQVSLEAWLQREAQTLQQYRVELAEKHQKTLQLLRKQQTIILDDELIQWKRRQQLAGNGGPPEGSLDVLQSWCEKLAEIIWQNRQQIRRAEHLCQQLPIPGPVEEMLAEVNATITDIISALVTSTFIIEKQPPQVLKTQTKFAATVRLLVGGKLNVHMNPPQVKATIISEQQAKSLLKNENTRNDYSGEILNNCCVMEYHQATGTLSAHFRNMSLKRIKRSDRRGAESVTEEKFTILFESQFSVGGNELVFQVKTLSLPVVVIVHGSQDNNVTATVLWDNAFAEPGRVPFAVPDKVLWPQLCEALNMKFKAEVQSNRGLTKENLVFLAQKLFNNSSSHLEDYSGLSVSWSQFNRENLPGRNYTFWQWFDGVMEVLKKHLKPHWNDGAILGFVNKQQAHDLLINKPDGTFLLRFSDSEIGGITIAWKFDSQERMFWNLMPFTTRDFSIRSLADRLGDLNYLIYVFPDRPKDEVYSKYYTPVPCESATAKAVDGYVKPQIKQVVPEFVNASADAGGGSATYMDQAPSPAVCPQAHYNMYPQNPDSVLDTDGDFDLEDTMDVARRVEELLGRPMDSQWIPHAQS
STAT5B p.Gln177Pro (P51692, form named): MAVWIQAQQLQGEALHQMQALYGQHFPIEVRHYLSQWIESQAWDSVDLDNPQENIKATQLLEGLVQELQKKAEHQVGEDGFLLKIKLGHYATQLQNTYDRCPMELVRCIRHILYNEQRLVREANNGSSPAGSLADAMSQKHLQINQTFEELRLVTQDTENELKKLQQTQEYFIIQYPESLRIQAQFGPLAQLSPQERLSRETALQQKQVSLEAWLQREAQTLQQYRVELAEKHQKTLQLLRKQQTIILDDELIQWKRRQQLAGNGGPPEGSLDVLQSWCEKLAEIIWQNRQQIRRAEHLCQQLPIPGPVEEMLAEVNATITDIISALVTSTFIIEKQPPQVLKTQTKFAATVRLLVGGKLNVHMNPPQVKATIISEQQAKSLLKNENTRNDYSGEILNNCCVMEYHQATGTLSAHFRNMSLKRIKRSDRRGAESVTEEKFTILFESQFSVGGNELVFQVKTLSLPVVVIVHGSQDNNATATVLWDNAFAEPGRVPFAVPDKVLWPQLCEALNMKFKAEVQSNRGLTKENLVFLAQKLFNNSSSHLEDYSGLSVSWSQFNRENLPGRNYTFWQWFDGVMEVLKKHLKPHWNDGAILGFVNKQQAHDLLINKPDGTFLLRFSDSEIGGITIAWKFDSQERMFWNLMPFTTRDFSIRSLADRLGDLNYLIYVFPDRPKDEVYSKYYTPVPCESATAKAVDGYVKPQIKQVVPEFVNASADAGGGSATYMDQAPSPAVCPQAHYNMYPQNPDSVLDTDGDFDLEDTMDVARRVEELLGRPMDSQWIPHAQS
STAT5B p.Gln474Arg (P51692, form named): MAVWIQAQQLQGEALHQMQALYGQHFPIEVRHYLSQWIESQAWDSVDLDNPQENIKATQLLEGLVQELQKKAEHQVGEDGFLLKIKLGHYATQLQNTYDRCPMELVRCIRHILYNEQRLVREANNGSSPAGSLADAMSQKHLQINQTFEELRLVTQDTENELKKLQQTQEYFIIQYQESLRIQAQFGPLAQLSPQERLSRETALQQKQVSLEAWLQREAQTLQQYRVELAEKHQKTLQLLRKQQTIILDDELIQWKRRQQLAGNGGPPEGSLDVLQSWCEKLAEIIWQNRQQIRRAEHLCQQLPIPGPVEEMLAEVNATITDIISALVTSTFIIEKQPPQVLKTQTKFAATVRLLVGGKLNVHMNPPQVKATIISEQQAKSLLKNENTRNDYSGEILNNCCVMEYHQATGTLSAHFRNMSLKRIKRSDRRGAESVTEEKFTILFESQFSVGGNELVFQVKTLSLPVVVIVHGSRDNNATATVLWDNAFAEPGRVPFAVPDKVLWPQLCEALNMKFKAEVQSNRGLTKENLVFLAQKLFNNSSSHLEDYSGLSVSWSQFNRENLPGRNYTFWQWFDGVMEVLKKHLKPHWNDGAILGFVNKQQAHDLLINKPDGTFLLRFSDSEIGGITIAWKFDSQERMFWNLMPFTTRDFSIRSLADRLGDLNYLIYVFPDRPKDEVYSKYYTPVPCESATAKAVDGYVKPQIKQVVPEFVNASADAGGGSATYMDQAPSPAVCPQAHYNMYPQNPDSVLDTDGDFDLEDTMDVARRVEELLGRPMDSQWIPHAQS

Substance	binding [1]	binding [2]	binding [3]
signal transducer and activator of transcription 5B (STAT5B), wild type (from UniProt P51692 1-787)	binds	binds	binds
STAT5B p.Ala478Val (from UniProt P51692 1-787)	binds	–	–
STAT5B p.Gln474Arg (from UniProt P51692 1-787)	–	–	binds
STAT5B p.Gln177Pro (from UniProt P51692 1-787)	–	binds	–
